PubChem BioAssay AID1224829, NIAID – 2016
Aim: 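Genes needed for LPS-driven NF-kappaB p65 nuclear entry in mouse macrophages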 (follow-up of hits). System: mouse RAW264.7 G9 macrophage reporter cells. Reagent: single siRNA against mouse genes, 100 nM. Time to read-out: 2 days of siRNA knock-down, then 40 min of LPS before fixing. Challenge: LPS (Salmonella minnesota R595) at 10 ng/ml. Measurement: 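Imaging of GFP-p65 after 40 min of LPS; nuclear over perinuclear ring intensity ratio, scaled to plate median and non-targeting control wells, given as z-score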. Reading the numbers: p65 translocation z-score: higher = more nuclear NF-kappaB p65 after LPS. Hit rule: 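An siRNA is called active when the mean z-score of its two replicates is above 2 or below -2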. Meaning of the calls: active = changed p65 translocation (either direction); inactive = no clear change.
Shown is an unselected part of about 3,800 deposited reagents. 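Calls cover raised and lowered translocation; gene median uses one vendor's three siRNAs; qiagen siRNAs acted more weakly than ambion siRNAs.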 A number with no mark means an inactive call. The numbers tell different reagents against one gene apart. Not all columns of the deposit are shown. No sequences are given here.

With Ube2e2 (GeneID 218793) #1, siRNA vendor or control pool ambion single siRNA, how do the results read?
p65 translocation z-score, replicate mean: 3.6 (active)

With Ube2e2 (GeneID 218793) #2, siRNA vendor or control pool ambion single siRNA, what does the deposit list?
p65 translocation z-score, replicate mean: 0.284

For Ube2e2 (GeneID 218793) #3, siRNA vendor or control pool ambion single siRNA, what does the deposit list?
p65 translocation z-score, replicate mean: -1.19

What is on record for Ube2e2 (GeneID 218793) #4, siRNA vendor or control pool qiagen single siRNA?
p65 translocation z-score, replicate mean: -0.621

Which result is listed for Ube2e2 (GeneID 218793) #5, siRNA vendor or control pool qiagen single siRNA?
p65 translocation z-score, replicate mean: 2.2 (active)

With Ube2e2 (GeneID 218793) #6, siRNA vendor or control pool qiagen single siRNA, what was measured?
p65 translocation z-score, replicate mean: 0.843

What did the screen give for Gphr (GeneID 67549) #1, siRNA vendor or control pool ambion single siRNA?
p65 translocation z-score, replicate mean: 0.62

For Gphr (GeneID 67549) #2, siRNA vendor or control pool ambion single siRNA, how do the results read?
p65 translocation z-score, replicate mean: -4.12 (active)

What is on record for Gphr (GeneID 67549) #3, siRNA vendor or control pool ambion single siRNA?
p65 translocation z-score, replicate mean: -11.7 (active)

Which result is listed for Gphr (GeneID 67549) #4, siRNA vendor or control pool qiagen single siRNA?
p65 translocation z-score, replicate mean: 0.6

Which result is listed for Gphr (GeneID 67549) #5, siRNA vendor or control pool qiagen single siRNA?
p65 translocation z-score, replicate mean: -7.24 (active)

With Gphr (GeneID 67549) #6, siRNA vendor or control pool qiagen single siRNA, how do the results read?
p65 translocation z-score, replicate mean: -3.7 (active)

For Plpp1 (GeneID 19012) #1, siRNA vendor or control pool ambion single siRNA, what does the deposit list?
p65 translocation z-score, replicate mean: -0.191

With Plpp1 (GeneID 19012) #2, siRNA vendor or control pool ambion single siRNA, what does the deposit list?
p65 translocation z-score, replicate mean: -3.56 (active)

What is on record for Plpp1 (GeneID 19012) #3, siRNA vendor or control pool ambion single siRNA?
p65 translocation z-score, replicate mean: -1.47

What did the screen give for Plpp1 (GeneID 19012) #4, siRNA vendor or control pool qiagen single siRNA?
p65 translocation z-score, replicate mean: -0.388

What did the screen give for Plpp1 (GeneID 19012) #5, siRNA vendor or control pool qiagen single siRNA?
p65 translocation z-score, replicate mean: -2.33 (active)

For Plpp1 (GeneID 19012) #6, siRNA vendor or control pool qiagen single siRNA, what does the deposit list?
p65 translocation z-score, replicate mean: -3.05 (active)

Which result is listed for Lmcd1 (GeneID 30937) #1, siRNA vendor or control pool ambion single siRNA?
p65 translocation z-score, replicate mean: 1.16

For Lmcd1 (GeneID 30937) #2, siRNA vendor or control pool ambion single siRNA, what does the deposit list?
p65 translocation z-score, replicate mean: -1.18

Which result is listed for Lmcd1 (GeneID 30937) #3, siRNA vendor or control pool ambion single siRNA?
p65 translocation z-score, replicate mean: -4.86 (active)

With Lmcd1 (GeneID 30937) #4, siRNA vendor or control pool qiagen single siRNA, what was measured?
p65 translocation z-score, replicate mean: 2.58 (active)

For Lmcd1 (GeneID 30937) #5, siRNA vendor or control pool qiagen single siRNA, how do the results read?
p65 translocation z-score, replicate mean: -1.27

For Lmcd1 (GeneID 30937) #6, siRNA vendor or control pool qiagen single siRNA, what does the deposit list?
p65 translocation z-score, replicate mean: 0.199

An excerpt of the results above, as a working copy:
Lmcd1 (GeneID 30937) #2, siRNA vendor or control pool ambion single siRNA | p65 translocation z-score, replicate mean: -1.18
Lmcd1 (GeneID 30937) #3, siRNA vendor or control pool ambion single siRNA | p65 translocation z-score, replicate mean: -4.86 (active)
